Test results as given in patent publication US8486950B2, “Janus kinase inhibitor compounds and methods” (F. Hoffmann-La Roche AG, priority 2009, dated 2013).
Some results were stated once for a whole list of compounds, not compound by compound.

Molecular target: T1, TYK2 kinase domain (Homo sapiens, UniProt P29597)
T1 construct: made in house; host or cells: SF9 insect cells (recombinant baculovirus)
T1 sequence (P29597 873-1187): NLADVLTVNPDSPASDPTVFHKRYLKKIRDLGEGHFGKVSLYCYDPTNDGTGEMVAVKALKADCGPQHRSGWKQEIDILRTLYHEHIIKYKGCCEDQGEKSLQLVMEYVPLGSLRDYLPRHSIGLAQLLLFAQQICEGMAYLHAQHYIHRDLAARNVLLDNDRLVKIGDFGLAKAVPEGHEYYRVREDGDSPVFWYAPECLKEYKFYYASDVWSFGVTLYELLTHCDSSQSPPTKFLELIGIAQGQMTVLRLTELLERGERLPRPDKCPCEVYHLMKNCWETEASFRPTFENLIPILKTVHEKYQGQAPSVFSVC
Assay: TYK2 inhibition assay (Caliper LabChip, isolated kinase domain)
Type: biochemical
Conditions: 25 uM ATP, values given as 'about'

## O=C(Nc1ccnc(NC(=O)[C@@H]2C[C@@H]2F)c1)c1c(Cl)cc(CNCC2CC2)cc1Cl [Example 330, 2,6-dichloro-4-((cyclopropylmethylamino)-methyl)-N-(2-((1S,2S)-2-fluorocyclopropanecarboxamido)pyridin-4-yl)benzamide]
  Ki: < 3.5 µM

## O=C(Nc1ccnc(NC(=O)[C@H]2C[C@H]2F)c1)c1c(Cl)cc(CNC2CC2)cc1Cl [Example 333, 2,6-dichloro-4-((cyclopropylamino)-methyl)-N-(2-((1R,2R)-2-fluorocyclopropanecarboxamido)pyridin-4-yl)benzamide]
  Ki: < 3.5 µM

## O=C(Nc1ccnc(NC(=O)[C@@H]2C[C@@H]2F)c1)c1c(Cl)cc(CNC2CC2)cc1Cl [Example 334, 2,6-dichloro-4-((cyclopropylamino)-methyl)-N-(2-((1S,2S)-2-fluorocyclopropanecarboxamido)pyridin-4-yl)benzamide]
  Ki: < 3.5 µM

## O=C(Nc1ccnc(NC(=O)C2CC2)c1)c1ccc(O)cc1F [Example 335, N-(2-(cyclopropanecarboxamido)pyridin-4-yl)-2-fluoro-4-hydroxybenzamide]
  Ki: < 3.5 µM

## Nc1ccc(C(=O)Nc2ccnc(NC(=O)C3CC3)c2)c(F)c1 [Example 336, 4-amino-N-(2-(cyclopropanecarboxamido)pyridin-4-yl)-2-fluorobenzamide]
  Ki: < 3.5 µM

## O=C(Nc1ccnc(NC(=O)[C@@H]2C[C@@H]2F)c1)c1c(Cl)cc(CNCCO)cc1Cl [Example 337, 2,6-dichloro-N-(2-((1S,2S)-2-fluorocyclopropanecarboxamido)pyridin-4-yl)-4-((2-hydroxyethylamino)-methyl)benzamide]
  Ki: < 3.5 µM

## O=C(Nc1ccnc(NC(=O)[C@H]2C[C@H]2F)c1)c1c(Cl)cc(CNCCO)cc1Cl [Example 338, 2,6-dichloro-N-(2-((1R,2R)-2-fluorocyclopropanecarboxamido)pyridin-4-yl)-4-((2-hydroxyethylamino)-methyl)benzamide]
  Ki: < 3.5 µM

## N#Cc1ccc(C(=O)Nc2ccnc(NC(=O)C3CC3)c2)c(F)c1 [Example 339, 4-cyano-N-(2-(cyclopropanecarboxamido)pyridin-4-yl)-2-fluorobenzamide]
  Ki: < 3.5 µM

## O=C(Nc1ccnc(NC(=O)[C@H]2C[C@H]2F)c1)c1ccc(O)cc1F [Example 340, 2-fluoro-N-(2-((1R,2R)-2-fluorrocyclopropanecarboxamido)pyridin-4-yl)-4-hydroxybenzamide]
  Ki: < 3.5 µM

## O=C(Nc1ccnc(NC(=O)[C@@H]2C[C@@H]2F)c1)c1ccc(O)cc1F [Example 341, 2-fluoro-N-(2-((1S,2S)-2-fluorocyclopropanecarboxamido)pyridin-4-yl)-4-hydroxybenzamide]
  Ki: < 3.5 µM

## N#Cc1ccc(C(=O)Nc2ccnc(NC(=O)[C@H]3C[C@H]3F)c2)c(F)c1 [Example 342, 4-cyano-2-fluoro-N-(2-((1R,2R)-2-fluorocyclopropanecarboxamido)pyridin-4-yl)benzamide]
  Ki: < 3.5 µM

## O=C(Nc1ccccn1)Nc1cc(NC(=O)c2c(Cl)cccc2Cl)ccn1 [Example 343, 2,6-dichloro-N-(2-(3-pyridin-2-ylureido)pyridin-4-yl)benzamide]
  Ki: < 3.5 µM

## O=C(Nc1cccnc1)Nc1cc(NC(=O)c2c(Cl)cccc2Cl)ccn1 [Example 344, 2,6-dichloro-N-(2-(3-pyridin-3-ylureido)pyridin-4-yl)benzamide]
  Ki: < 3.5 µM

## O=C(Nc1ccnc(NC(=O)C2CC2)c1)c1c(F)cc(F)cc1F [Example 345, N-(2-(cyclopropanecarboxamido)pyridin-4-yl)-2,4,6-trifluorobenzamide]
  Ki: < 3.5 µM

## CNC(=O)Nc1cc(NC(=O)c2c(Cl)cccc2Cl)ccn1 [Example 347, 2,6-dichloro-N-(2-(3-methylureido)pyridin-4-yl)benzamide]
  Ki: < 3.5 µM

## O=C(Nc1cc(NC(=O)c2c(Cl)cccc2Cl)ccn1)NC1CCC1 [Example 348, 2,6-dichloro-N-(2-(3-cyclobutylureido)pyridin-4-yl)benzamide]
  Ki: < 3.5 µM

## O=C(NCc1ccccc1)Nc1cc(NC(=O)c2c(Cl)cccc2Cl)ccn1 [Example 349, N-(2-(3-benzylureido)pyridin-4-yl)-2,6-dichlorobenzamide]
  Ki: < 3.5 µM

## O=C(Nc1ccnc(NC(=O)C2CC2)c1)c1c(Cl)cc(N2CCOCC2)cc1Cl [Example 352, 2,6-dichloro-N-(2-(cyclopropanecarboxamido)pyridin-4-yl)-4-morpholinobenzamide]
  Ki: < 3.5 µM

## O=C(Nc1ccnc(NC(=O)C2CC2)c1)c1c(Cl)cc(N2CCCC2=O)cc1Cl [Example 353, 2,6-dichloro-N-(2-(cyclopropanecarboxamido)pyridin-4-yl)-4-(2-oxopyrrolidin-2-yl)benzamide]
  Ki: < 3.5 µM

## O=C(Nc1ccnc(NC(=O)C2CC2)c1)c1c(Cl)cc(N2CCOC2=O)cc1Cl [Example 354, 2,6-dichloro-N-(2-(cyclopropanecarboxamido)pyridin-4-yl)-4-(2-oxooxazolidin-3-yl)benzamide]
  Ki: < 3.5 µM

## O=C(Nc1ccnc(NC(=O)C(CO)CO)c1)c1c(Cl)cccc1Cl [Example 355, 2,6-dichloro-N-(2-(3-hydroxy-2-(hydroxymethyl)propanamido)pyridin-4-yl)benzamide]
  Ki: < 3.5 µM

## O=C(Nc1ccnc(N2CC(CO)C2=O)c1)c1c(Cl)cccc1Cl (centres unmarked) [Example 356, 2,6-dichloro-N-(2-(3-(hydroxymethyl)-2-oxoazetidin-1-yl)pyridin-4-yl)benzamide]
  Ki: < 3.5 µM

## O=C(Nc1ccnc(NC(=O)C2COC2)c1)c1c(Cl)cccc1Cl [Example 359, N-(4-(2,6-dichlorobenzamido)pyridin-2-yl)oxetane-3-carboxamide]
  Ki: < 3.5 µM

## O=C(Nc1ccnc(Nc2ccncn2)c1)c1c(F)cccc1Cl [Example 361, 2-chloro-6-fluoro-N-(2-(pyrimidin-4-ylamino)pyridin-4-yl)benzamide]
  Ki: < 3.5 µM

## O=C(Nc1ccnc(Nc2ccncn2)c1)c1c(F)cccc1Br [Example 362, 2-bromo-6-fluoro-N-(2-(pyrimidin-4-ylamino)pyridin-4-yl)benzamide]
  Ki: < 3.5 µM

## O=C(Nc1ccnc(NC(=O)C2CC2)c1)c1ccccc1Cl [Example 363, 2-chloro-N-(2-(cyclopropanecarboxamido)pyridin-4-yl)benzamide]
  Ki: < 3.5 µM

## Cc1cccc(C)c1C(=O)Nc1ccnc(NC(=O)C2CC2)c1 [Example 364, N-(2-(cyclopropanecarboxamido)pyridin-4-yl)-2,6-dimethylbenzamide]
  Ki: < 3.5 µM

## COc1cccc(F)c1C(=O)Nc1ccnc(NC(=O)C2CC2)c1 [Example 365, N-(2-(cyclopropanecarboxamido)pyridin-4-yl)-2-fluoro-6-methoxybenzamide]
  Ki: < 3.5 µM

## O=C(Nc1ccnc(NC(=O)C2CC2)c1)c1c(Cl)cccc1Br [Example 366, 2-bromo-6-chloro-N-(2-(cyclopropanecarboxamido)pyridin-4-yl)benzamide]
  Ki: < 3.5 µM

## O=C(Nc1ccnc(NC(=O)C2CC2)c1)c1c(F)cccc1F [Example 368, N-(2-(cyclopropanecarboxamido)pyridin-4-yl)-2,6-difluorobenzamide]
  Ki: < 3.5 µM

## Cc1cccc(Cl)c1C(=O)Nc1ccnc(NC(=O)C2CC2)c1 [Example 369, 2-chloro-N-(2-(cyclopropanecarboxamido)pyridin-4-yl)-6-methylbenzamide]
  Ki: < 3.5 µM

## CN(C)C(=O)c1cc(Cl)c(C(=O)Nc2ccnc(Nc3ccncn3)c2)c(Cl)c1 [Example 372, 2,6-dichloro-N4,N4-dimethyl-N1-(2-(pyrimidin-4-ylamino)pyridin-4-yl)terephthalamide]
  Ki: < 3.5 µM

## O=C(Nc1ccnc(NC(=O)C2CC2)c1)c1c(Cl)cc(CF)cc1Cl [Example 373, 2,6-dichloro-N-(2-(cyclopropanecarboxamido)pyridin-4-yl)-4-(fluoromethyl)benzamide]
  Ki: < 3.5 µM

## COc1cccc(Cl)c1C(=O)Nc1ccnc(NC(=O)C2CC2)c1 [Example 375, 2-chloro-N-(2-(cyclopropanecarboxamido)pyridin-4-yl)-6-methoxybenzamide]
  Ki: < 3.5 µM

## Cc1cc(Nc2cc(NC(=O)c3c(Cl)cc(CO)cc3Cl)ccn2)nc(C)n1 [Example 377, 2,6-dichloro-N-(2-(2,6-dimethylpyrimidin-4-ylamino)pyridin-4-yl)-4-(hydroxymethyl)benzamide]
  Ki: < 3.5 µM

## Cc1cc(Nc2cc(NC(=O)c3c(Cl)cc(CN(C)C)cc3Cl)ccn2)nc(C)n1 [Example 378, 2,6-dichloro-4-((dimethylamino)methyl)-N-(2-(2,6-dimethylpyrimidin-4-ylamino)pyridin-4-yl)benzamide]
  Ki: < 3.5 µM

## Cc1cc(Nc2cc(NC(=O)c3c(Cl)cc(CN4CCOCC4)cc3Cl)ccn2)nc(C)n1 [Example 379, 2,6-dichloro-N-(2-(2,6-dimethylpyrimidin-4-ylamino)pyridin-4-yl)-4-(morpholinomethyl)benzamide]
  Ki: < 3.5 µM

## Cc1cc(Nc2cc(NC(=O)c3c(Cl)cc(Cl)cc3Cl)ccn2)nc(N2CCOCC2)n1 [Example 380, 2,4,6-trichloro-N-(2-(6-methyl-2-morpholinopyrimidin-4-ylamino)pyridin-4-yl)benzamide]
  Ki: < 3.5 µM

## Cc1cc(Nc2cc(NC(=O)c3c(F)cccc3Cl)ccn2)nc(N2CCOCC2)n1 [Example 381, 2-chloro-6-fluoro-N-(2-(6-methyl-2-morpholinopyrimidin-4-ylamino)pyridin-4-yl)benzamid]
  Ki: < 3.5 µM

## Cc1cc(Nc2cc(NC(=O)c3ccccc3Cl)ccn2)nc(N2CCOCC2)n1 [Example 382, 2-chloro-N-(2-(6-methyl-2-morpholinopyrimidin-4-ylamino)pyridin-4-yl)benzamide]
  Ki: < 3.5 µM

## O=C(Nc1ccnc(NC(=O)C2CC2)c1)c1c(Cl)cccc1C(F)(F)F [Example 383, 2-chloro-N-(2-(cyclopropanecarboxamido)pyridin-4-yl)-6-(trifluoromethyl)benzamide]
  Ki: < 3.5 µM
